# In the supplement of paper PMC12819154, “High-throughput peptide-centric local stability assay extends protein–ligand identification to membrane proteins, tissues and bacteria” (Nature Structural & Molecular Biology, 2025):
# By UniProt entry, the sequences of proteins in these tests, tags left out. Where a name states a change or a piece, a line headed by the entry shows the natural chain unless it says otherwise.
# UniProt Q80U87: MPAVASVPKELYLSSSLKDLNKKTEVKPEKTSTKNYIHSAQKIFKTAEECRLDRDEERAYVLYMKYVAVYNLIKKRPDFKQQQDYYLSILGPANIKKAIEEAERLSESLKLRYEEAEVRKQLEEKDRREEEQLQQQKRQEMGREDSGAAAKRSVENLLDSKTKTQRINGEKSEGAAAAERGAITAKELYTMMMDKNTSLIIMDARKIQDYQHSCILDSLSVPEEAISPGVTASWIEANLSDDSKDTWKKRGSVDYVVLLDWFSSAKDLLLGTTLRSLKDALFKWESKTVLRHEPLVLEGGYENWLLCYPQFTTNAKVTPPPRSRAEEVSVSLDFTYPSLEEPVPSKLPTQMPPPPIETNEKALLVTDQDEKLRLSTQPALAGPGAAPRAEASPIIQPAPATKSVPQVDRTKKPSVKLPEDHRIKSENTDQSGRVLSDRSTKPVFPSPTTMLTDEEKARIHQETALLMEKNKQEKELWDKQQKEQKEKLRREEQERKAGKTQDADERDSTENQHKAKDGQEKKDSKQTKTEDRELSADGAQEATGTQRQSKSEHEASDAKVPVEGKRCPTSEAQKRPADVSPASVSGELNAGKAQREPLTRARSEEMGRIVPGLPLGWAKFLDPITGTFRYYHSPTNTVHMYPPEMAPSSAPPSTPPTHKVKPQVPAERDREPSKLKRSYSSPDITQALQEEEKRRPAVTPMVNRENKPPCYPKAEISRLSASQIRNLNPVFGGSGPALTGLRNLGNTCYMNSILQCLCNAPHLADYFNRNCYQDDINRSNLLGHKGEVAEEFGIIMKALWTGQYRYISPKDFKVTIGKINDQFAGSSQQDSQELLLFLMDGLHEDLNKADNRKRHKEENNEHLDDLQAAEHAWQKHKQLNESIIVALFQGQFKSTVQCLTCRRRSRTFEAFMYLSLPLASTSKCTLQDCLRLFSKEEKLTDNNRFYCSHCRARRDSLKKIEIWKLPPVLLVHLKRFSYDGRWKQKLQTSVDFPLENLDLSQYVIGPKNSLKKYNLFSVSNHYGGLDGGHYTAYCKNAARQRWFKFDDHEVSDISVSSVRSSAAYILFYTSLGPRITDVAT
# UniProt Q7TT28: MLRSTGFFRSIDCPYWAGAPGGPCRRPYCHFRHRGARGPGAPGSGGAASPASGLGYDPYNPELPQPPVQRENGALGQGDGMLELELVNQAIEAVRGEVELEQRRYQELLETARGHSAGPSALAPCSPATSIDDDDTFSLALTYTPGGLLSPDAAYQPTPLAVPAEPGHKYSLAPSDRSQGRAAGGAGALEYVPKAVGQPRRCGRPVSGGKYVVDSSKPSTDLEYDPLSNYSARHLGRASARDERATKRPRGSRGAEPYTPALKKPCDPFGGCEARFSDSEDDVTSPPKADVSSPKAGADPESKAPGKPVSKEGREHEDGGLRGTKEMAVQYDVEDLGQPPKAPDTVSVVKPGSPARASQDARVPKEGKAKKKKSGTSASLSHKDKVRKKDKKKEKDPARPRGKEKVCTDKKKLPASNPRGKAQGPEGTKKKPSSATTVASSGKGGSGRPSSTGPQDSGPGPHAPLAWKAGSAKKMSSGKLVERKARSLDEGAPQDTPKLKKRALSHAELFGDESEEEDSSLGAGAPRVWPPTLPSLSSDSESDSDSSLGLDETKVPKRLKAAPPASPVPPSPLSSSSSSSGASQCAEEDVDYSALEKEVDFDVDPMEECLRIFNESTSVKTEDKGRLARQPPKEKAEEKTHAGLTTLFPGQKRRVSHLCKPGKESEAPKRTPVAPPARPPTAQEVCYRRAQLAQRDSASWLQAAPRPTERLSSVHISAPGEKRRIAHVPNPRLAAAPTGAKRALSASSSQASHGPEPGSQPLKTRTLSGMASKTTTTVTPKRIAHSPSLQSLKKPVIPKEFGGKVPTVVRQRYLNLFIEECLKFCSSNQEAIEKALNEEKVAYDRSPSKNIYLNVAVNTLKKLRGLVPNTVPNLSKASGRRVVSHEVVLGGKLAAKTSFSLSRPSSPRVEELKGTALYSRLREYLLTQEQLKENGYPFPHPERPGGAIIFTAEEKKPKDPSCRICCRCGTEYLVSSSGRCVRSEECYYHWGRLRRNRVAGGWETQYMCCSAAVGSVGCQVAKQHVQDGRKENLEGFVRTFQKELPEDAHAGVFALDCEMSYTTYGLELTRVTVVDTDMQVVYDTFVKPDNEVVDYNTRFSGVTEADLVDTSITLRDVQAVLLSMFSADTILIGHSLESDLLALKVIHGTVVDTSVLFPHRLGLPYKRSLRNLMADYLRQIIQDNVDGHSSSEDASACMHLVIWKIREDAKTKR
# UniProt Q7TMF3, whole entry: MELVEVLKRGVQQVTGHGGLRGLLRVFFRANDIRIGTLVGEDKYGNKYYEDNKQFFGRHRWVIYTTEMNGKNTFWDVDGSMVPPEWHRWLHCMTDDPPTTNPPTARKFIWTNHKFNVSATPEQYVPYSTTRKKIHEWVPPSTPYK
# UniProt Q7TN12: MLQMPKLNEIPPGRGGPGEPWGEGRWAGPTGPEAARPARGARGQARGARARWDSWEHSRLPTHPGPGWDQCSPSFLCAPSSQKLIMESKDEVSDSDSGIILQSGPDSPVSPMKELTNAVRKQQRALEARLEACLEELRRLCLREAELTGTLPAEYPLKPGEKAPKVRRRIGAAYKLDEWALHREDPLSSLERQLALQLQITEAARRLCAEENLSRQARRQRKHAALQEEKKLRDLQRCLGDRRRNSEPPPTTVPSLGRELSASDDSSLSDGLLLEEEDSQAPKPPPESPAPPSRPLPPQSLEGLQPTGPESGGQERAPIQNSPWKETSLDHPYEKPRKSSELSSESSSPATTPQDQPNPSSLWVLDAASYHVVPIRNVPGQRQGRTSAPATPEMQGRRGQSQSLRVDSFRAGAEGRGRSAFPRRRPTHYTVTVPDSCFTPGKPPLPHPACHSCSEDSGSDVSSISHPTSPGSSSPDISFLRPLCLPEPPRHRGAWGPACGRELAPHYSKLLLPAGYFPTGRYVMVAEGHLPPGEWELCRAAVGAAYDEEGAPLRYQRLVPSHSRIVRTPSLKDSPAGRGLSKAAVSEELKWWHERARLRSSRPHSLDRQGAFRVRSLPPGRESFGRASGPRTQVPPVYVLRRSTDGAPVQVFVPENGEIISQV
# UniProt Q80UY1: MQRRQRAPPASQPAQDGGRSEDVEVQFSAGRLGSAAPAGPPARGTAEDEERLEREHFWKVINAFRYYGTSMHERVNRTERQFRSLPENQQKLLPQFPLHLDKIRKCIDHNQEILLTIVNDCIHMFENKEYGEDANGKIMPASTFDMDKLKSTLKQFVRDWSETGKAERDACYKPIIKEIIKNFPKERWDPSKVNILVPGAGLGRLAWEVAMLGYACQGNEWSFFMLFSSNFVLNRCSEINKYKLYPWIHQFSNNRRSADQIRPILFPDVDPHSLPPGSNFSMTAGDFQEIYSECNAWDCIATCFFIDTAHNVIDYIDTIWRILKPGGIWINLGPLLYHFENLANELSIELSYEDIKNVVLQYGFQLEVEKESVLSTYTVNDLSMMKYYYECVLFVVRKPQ
# UniProt Q7TSJ2: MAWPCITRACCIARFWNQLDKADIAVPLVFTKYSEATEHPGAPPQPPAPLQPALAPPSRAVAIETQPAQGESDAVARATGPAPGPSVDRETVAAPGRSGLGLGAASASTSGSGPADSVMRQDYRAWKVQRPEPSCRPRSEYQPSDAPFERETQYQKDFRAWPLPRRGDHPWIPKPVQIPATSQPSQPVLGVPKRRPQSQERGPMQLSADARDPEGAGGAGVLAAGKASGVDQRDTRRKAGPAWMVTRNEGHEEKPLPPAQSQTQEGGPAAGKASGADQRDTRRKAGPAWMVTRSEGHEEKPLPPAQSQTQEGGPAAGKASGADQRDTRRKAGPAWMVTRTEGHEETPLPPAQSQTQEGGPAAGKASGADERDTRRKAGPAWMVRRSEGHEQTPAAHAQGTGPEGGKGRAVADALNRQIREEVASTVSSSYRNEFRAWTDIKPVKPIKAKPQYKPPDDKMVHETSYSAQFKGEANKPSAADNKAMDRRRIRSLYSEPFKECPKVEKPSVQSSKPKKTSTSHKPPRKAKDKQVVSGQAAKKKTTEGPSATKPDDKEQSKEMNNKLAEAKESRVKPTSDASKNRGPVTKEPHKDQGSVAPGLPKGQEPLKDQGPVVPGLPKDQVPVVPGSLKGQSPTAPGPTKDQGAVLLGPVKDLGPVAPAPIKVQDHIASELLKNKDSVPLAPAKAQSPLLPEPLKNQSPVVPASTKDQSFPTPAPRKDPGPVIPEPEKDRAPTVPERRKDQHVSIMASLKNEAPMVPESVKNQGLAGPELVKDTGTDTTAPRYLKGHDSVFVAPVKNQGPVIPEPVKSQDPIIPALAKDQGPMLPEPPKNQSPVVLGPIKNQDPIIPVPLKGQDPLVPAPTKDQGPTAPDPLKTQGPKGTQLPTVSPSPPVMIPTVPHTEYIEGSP
# UniProt Q80UP5: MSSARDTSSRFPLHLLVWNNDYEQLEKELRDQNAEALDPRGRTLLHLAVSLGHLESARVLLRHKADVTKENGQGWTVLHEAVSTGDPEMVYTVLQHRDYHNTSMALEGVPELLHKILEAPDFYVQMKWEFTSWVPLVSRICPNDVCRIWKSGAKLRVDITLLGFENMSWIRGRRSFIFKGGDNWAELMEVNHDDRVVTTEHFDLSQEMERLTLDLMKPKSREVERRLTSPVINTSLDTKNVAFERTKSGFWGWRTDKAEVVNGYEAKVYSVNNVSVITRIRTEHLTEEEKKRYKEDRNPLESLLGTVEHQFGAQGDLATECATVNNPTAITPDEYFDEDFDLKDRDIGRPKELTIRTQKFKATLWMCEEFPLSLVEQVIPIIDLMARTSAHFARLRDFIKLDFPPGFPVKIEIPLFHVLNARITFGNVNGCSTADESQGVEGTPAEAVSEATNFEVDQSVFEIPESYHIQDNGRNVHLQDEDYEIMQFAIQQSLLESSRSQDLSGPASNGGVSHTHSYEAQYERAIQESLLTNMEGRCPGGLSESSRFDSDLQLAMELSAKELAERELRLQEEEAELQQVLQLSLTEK
# UniProt Q6ZQF7, whole entry: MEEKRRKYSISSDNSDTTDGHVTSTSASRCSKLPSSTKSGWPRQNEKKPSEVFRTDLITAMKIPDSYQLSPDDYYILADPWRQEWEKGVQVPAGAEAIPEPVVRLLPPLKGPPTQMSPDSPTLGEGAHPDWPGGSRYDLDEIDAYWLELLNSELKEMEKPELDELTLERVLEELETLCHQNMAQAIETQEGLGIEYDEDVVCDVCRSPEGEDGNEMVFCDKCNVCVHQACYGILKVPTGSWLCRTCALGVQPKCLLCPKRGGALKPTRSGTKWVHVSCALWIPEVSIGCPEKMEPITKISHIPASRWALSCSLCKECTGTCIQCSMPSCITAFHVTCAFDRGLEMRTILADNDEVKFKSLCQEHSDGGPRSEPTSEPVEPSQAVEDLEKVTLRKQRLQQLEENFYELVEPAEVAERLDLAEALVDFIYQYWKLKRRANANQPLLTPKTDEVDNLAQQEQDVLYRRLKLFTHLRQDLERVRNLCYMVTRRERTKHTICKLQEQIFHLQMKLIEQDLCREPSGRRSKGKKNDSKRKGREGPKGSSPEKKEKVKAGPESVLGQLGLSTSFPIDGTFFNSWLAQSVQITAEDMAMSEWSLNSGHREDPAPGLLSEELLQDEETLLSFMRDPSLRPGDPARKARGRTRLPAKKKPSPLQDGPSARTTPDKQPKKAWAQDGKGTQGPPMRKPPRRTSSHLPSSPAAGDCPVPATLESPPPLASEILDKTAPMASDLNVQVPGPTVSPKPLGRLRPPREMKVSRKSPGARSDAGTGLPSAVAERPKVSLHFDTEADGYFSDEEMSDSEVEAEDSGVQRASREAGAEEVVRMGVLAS
# UniProt Q80VD1: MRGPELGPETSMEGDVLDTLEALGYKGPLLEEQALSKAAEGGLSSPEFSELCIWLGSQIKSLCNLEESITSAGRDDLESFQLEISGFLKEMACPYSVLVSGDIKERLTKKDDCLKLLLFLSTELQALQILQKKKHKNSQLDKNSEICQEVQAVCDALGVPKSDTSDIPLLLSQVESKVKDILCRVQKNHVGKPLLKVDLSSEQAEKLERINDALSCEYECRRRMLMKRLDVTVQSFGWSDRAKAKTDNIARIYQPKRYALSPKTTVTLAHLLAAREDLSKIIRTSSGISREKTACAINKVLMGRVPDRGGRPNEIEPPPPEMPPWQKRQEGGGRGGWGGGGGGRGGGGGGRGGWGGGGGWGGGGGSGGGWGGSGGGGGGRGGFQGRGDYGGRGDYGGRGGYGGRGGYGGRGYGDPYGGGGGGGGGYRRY
# This is one part of the list. Most entries show no effect beyond the scatter of the controls.
# Compound: CN[C@@H]1C[C@H]2O[C@@](C)([C@@H]1OC)n1c3ccccc3c3c4c(c5c6ccccc6n2c5c31)C(=O)NC4 [staurosporine]
# Test: log2 fold change of tryptic peptide abundance, ligand vs vehicle (limited proteolysis) (log2 ratio); higher = more trypsin-susceptible (destabilized)
# Conditions: ligand concentration: 20 uM; sample: mouse liver crude lysate; replicate design: treated separately
row,Target,log2 fold change
1,"UniProt Q80U87 (peptide sequence: RPADVSPASVSGELNAGK, peptide start residue: 575)",-0.303
2,"UniProt Q7TT28 (peptide sequence: AAGGAGALEYVPK, peptide start residue: 182)",-0.593
3,"UniProt Q7TMF3 (peptide sequence: KIHEWVPPSTPYK, peptide start residue: 133)",-0.474
4,"UniProt Q7TN12 (peptide sequence: IVRTPSLK, peptide start residue: 565)",0.172
5,"UniProt Q80UY1 (peptide sequence: YYGTSMHER, peptide start residue: 66)",-0.395
6,"UniProt Q7TPD1 (peptide sequence: SSMEGASTSTTENFGHR, peptide start residue: 120)",-0.115
7,"UniProt Q7TSJ2 (peptide sequence: AGPAWMVTR, peptide start residue: 239)",0.308
8,"UniProt Q80UP5 (peptide sequence: VYSVNNVSVITR, peptide start residue: 268)",-0.114
9,"UniProt Q6ZQF7 (peptide sequence: KKPSPLQDGPSAR, peptide start residue: 648)",-0.238
10,"UniProt Q80TP3 (peptide sequence: WSSGVGGSGGGSSGR, peptide start residue: 132)",-0.18
11,"UniProt Q80VD1 (peptide sequence: VDLSSEQAEK, peptide start residue: 197)",-0.389

# From entry 10 to 11, copied from above:
row,Target,log2 fold change
10,"UniProt Q80TP3 (peptide sequence: WSSGVGGSGGGSSGR, peptide start residue: 132)",-0.18
11,"UniProt Q80VD1 (peptide sequence: VDLSSEQAEK, peptide start residue: 197)",-0.389
